Compound in this test: Nc1nc2c(ncn2[C@@H]2O[C@H](COP(=O)(O)OP(=O)(O)OP(=O)(O)O)[C@@H](O)[C@H]2O)c(=O)[nH]1 [guanosine triphosphate]
As to the kind of experiment: NP40-soluble protein abundance relative to vehicle (solubility fold change) (ratio); higher = more soluble protein in presence of GTP. The procedure: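 Solubility proteome profiling in Jurkat crude lysate. Lysate was treated with Mg-GTP (0.1-10 mM) for 10 min at room temperature and 3 min at 37 °C, then solubilised with 0.8% NP40 and benzonase, followed by ultracentrifugation. Proteins were quantified by TMT10 LC-MS/MS; the value is the NP40-soluble abundance relative to the NP40-processed vehicle, from 3 independent experiments.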

By UniProt entry, the sequences of proteins in these tests, tags left out. Where a name states a change or a piece, a line headed by the entry shows the natural chain unless it says otherwise.
UniProt Q6UB99: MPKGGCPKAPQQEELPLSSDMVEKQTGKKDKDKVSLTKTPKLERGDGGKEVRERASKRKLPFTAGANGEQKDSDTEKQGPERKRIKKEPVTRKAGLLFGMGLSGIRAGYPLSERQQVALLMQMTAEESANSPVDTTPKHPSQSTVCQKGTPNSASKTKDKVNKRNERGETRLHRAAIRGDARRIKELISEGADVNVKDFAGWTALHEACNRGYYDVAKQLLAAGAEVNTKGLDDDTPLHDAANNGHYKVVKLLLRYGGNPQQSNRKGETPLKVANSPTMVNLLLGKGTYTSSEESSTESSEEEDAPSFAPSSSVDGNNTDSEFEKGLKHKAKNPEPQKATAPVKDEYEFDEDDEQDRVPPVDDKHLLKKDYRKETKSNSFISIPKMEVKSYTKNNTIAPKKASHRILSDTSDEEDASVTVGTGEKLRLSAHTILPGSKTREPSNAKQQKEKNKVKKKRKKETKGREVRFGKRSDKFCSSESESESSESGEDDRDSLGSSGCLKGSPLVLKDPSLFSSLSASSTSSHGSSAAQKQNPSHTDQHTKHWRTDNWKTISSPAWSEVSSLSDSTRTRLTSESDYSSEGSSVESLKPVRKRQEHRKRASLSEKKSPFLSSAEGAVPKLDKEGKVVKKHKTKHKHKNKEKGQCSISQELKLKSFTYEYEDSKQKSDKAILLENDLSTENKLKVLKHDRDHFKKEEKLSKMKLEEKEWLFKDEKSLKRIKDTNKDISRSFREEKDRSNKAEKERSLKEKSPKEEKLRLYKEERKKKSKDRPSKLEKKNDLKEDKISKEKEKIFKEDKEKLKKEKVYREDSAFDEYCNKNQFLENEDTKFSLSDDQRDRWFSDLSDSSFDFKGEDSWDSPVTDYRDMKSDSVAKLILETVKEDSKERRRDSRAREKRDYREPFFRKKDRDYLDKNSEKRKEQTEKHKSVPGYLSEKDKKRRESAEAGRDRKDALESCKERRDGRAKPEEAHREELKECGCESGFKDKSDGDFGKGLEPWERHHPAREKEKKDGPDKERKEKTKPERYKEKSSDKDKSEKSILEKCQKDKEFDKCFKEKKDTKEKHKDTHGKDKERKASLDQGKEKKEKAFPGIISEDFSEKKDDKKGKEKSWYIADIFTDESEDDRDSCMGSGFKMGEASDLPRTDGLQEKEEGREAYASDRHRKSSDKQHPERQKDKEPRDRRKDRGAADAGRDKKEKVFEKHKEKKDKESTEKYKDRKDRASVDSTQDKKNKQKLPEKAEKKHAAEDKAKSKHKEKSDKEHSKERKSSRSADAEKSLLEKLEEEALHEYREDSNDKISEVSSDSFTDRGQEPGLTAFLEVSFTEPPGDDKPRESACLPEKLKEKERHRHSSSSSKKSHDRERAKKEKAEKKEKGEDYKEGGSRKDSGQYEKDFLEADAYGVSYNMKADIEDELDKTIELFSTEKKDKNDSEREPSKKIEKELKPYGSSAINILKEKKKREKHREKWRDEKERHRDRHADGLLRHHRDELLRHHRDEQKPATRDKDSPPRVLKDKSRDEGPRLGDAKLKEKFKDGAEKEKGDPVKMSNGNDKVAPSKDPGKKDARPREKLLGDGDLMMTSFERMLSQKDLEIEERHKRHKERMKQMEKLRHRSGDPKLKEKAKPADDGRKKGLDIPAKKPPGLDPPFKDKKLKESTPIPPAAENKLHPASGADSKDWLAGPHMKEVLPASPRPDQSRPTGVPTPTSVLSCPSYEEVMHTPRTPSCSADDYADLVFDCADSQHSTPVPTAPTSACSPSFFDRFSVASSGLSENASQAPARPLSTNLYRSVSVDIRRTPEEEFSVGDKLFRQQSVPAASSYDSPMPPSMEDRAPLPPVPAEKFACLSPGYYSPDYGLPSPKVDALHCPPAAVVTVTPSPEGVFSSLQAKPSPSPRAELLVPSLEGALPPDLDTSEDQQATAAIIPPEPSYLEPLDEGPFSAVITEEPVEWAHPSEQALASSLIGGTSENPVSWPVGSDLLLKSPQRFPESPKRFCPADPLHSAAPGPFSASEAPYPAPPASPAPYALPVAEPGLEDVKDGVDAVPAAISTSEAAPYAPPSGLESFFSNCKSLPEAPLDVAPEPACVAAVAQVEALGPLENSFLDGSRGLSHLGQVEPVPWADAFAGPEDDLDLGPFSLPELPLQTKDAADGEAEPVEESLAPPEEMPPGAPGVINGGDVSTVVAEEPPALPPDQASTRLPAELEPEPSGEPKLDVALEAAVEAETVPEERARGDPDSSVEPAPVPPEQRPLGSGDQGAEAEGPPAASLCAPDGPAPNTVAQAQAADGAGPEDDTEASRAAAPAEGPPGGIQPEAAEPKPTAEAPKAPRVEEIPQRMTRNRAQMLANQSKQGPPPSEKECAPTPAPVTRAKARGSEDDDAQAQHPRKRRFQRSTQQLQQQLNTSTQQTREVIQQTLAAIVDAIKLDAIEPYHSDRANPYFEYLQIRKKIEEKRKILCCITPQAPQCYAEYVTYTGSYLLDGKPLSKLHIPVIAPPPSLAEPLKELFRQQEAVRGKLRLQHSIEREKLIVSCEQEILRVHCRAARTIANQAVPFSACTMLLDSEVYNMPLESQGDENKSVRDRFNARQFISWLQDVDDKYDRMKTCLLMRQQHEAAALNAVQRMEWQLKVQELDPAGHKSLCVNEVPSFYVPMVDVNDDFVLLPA
UniProt Q6ZNW5: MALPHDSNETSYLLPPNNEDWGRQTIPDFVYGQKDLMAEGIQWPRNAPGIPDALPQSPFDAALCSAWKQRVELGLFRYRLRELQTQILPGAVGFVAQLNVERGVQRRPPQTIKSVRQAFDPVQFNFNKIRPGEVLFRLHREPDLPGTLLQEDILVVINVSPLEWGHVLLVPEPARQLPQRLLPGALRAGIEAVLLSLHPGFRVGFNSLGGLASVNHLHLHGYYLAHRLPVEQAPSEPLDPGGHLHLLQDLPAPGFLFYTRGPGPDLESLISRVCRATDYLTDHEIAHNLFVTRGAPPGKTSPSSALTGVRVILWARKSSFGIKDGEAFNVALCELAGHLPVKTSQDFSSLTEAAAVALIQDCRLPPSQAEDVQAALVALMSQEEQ
UniProt Q5VWZ2: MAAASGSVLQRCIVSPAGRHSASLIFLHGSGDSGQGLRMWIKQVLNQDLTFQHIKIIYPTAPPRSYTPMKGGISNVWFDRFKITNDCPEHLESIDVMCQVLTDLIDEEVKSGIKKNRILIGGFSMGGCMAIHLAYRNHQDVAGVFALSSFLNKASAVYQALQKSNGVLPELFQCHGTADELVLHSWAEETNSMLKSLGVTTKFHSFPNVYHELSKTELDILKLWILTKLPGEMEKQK
UniProt Q86US8: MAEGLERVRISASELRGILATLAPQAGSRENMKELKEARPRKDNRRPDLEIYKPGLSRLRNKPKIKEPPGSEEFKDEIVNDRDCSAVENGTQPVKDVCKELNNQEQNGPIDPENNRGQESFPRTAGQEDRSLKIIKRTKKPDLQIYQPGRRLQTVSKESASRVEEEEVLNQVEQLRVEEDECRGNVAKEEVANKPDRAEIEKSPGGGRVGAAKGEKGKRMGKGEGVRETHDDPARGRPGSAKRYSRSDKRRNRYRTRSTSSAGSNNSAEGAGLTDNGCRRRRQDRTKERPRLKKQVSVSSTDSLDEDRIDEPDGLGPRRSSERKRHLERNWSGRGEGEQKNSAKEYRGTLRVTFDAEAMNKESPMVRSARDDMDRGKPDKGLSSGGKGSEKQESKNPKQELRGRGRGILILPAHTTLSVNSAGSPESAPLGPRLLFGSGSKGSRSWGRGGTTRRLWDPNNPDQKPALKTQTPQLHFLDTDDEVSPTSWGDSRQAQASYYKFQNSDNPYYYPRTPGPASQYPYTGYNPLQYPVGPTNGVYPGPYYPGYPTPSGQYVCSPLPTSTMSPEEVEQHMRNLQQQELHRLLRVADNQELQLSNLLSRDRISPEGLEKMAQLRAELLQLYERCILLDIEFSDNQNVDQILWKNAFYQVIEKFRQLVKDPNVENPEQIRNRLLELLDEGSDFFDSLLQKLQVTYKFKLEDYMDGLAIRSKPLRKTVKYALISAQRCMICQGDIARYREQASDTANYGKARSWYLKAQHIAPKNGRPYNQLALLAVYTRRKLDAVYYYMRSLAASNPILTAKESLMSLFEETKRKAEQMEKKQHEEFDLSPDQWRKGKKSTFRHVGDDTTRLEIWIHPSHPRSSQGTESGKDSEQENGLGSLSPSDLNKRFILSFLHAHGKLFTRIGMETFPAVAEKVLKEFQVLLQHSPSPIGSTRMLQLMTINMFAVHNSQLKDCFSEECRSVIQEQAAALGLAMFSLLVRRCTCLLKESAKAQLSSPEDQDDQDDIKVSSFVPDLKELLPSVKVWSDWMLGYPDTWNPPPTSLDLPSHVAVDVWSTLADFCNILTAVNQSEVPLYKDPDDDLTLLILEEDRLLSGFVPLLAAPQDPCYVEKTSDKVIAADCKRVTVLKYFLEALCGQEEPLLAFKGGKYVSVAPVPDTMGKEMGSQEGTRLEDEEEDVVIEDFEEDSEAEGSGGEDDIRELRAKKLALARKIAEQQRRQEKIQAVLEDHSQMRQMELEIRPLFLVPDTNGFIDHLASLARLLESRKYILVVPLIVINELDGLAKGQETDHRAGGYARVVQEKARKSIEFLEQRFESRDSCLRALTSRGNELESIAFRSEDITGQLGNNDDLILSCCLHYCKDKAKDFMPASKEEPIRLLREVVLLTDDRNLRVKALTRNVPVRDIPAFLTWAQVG

± gives the standard deviation of the averaged measurements. The list shows a part of the results.

In the case of ANKRD11 (UniProt Q6UB99), the NP40-soluble protein abundance is, setting by setting: (concentration: 0.1mM) 1.01 ± 0.024; (concentration: 0.5mM) 1.01 ± 0.092; (concentration: 1mM) 1.1 ± 0.027; (concentration: 2mM) 1.1 ± 0.06; (concentration: 4mM) 1.1 ± 0.041; (concentration: 6mM) 1.08 ± 0.042. The NP40-soluble protein abundance is, setting by setting: (concentration: 8mM) 1.18 ± 0.073; (concentration: 10mM) 1.17 ± 0.073.
As to UniProt Q6ZNW5 and related entries, the NP40-soluble protein abundance reads like this: (concentration: 0.1mM) 1.15 ± 0.048; (concentration: 0.5mM) 1.03 ± 0.089; (concentration: 1mM) 0.986 ± 0.023; (concentration: 2mM) 0.908 ± 0.035; (concentration: 4mM) 0.998 ± 0.031; (concentration: 6mM) 0.946 ± 0.017. Further, the NP40-soluble protein abundance (concentration: 8mM) came to 0.904 ± 0.055 and the NP40-soluble protein abundance (concentration: 10mM) worked out at 0.872 ± 0.038.
On to LYPLAL1 (UniProt Q5VWZ2), for which the NP40-soluble protein abundance by setting is: (concentration: 0.1mM) 1.16 ± 0.025; (concentration: 0.5mM) 1 ± 0.053; (concentration: 1mM) 1.04 ± 0.06; (concentration: 2mM) 0.965 ± 0.078; (concentration: 4mM) 1.03 ± 0.1; (concentration: 6mM) 0.907 ± 0.073. The NP40-soluble protein abundance by setting is: (concentration: 8mM) 0.959 ± 0.083; (concentration: 10mM) 0.875 ± 0.12.
As for SMG6 (UniProt Q86US8), the NP40-soluble protein abundance was found to be 1.11 ± 0.016 (concentration: 0.1mM); 1.14 ± 0.077 (concentration: 0.5mM); 1.17 ± 0.031 (concentration: 1mM); 1.15 ± 0.071 (concentration: 2mM); 1.23 ± 0.037 (concentration: 4mM); 1.15 ± 0.032 (concentration: 6mM). The NP40-soluble protein abundance is 1.25 ± 0.038 (concentration: 8mM) and 1.18 ± 0.012 (concentration: 10mM).
With UniProt Q86T03-2, the NP40-soluble protein abundance worked out at 1.09 ± 0.12 (concentration: 0.1mM); 1.08 ± 0.12 (concentration: 0.5mM); 1.06 ± 0.12 (concentration: 1mM); 1.18 ± 0.16 (concentration: 2mM); 1.19 ± 0.21 (concentration: 4mM); 1.16 ± 0.23 (concentration: 6mM). Besides, the NP40-soluble protein abundance reads like this: (concentration: 8mM) 1.2 ± 0.2; (concentration: 10mM) 1.21 ± 0.19.

Values taken from the supplement of paper PMC6411743.
